Laboratory results as given in patent US9982017B2 (priority 2012, dated 2018).
[ ]: non-standard residue; d: D form. pGlu = O=C1CC[C@@H](C(=O)O)N1; Nle = CCCC[C@H](N)C(=O)O

Assay: general procedure: Fmoc solid-phase peptide synthesis; Rink-Amide-AM-PS
Details: whole synthesis, scale 0.100 mmol, one disulfide bridge, sequence written open

With “[pGlu]RPRLCHKGP[Nle]CF-NH2 (cysteine pairing not given here)” the isolated mass was 50.5 mg.
